Source: patent EP0182608B1, “Polycyclic compounds, their preparation and formulations containing them” (priority 1984, dated 1986)

System: P388/0 tumor cells
Experiment: Lymphocytic Leukemia P388/0 Test
Format: in vivo, CD2-F₁ mice
Conditions: intraperitoneally on days 1, 5 and 9 relative to tumor implant; mice injected i.p. with 10⁶ viable P388/0 cells on day 0
Excerpt: Methods for evaluating the antitumor activity of these compounds are essentially those used in the Tumor Panel by the Development Therapeutics Program, Division of Cancer Treatment, National Cancer Institute, A. Goldin, et al., Methods in Cancer Research, Vol. XVI, p. 165, Academic Press (1979). Some modifications, in dose level and schedule have been made to increase the testing efficiency.
CD2-F₁ mice, of the same sex weighing within 20±3g, are used for this test. Control and test animals are injected intraperitoneally with a suspension of 10⁶ viable P388/0 tumor cells on day 0. In each test several dose levels which bracket the LD₂₀ for the compound are evaluated; each dose level group contains 6 animals. The test compounds are prepared either in physiologic saline containing 0.05% Tween 80 or distilled water containing 5% dextrose and are administered intraperitoneally on days, 1, 5, and 9 relative to tumor implant. Doses are on a mg/kg basis according to individual animals' body weights. the day of death for each animal is recorded, the median identified for each group and the ratios of median survival time for treated (T)/control (C) groups are calculated. The criterion for activity is T/C x 100 ≧120%.

Row | SMILES | Optimal Dose [mg/kg]
1 | CC(CO)(CO)NCc1cc2c3ccccc3oc2c2ccccc12 [Example 5B] | 125
2 | CC(CO)(CO)NCc1cccc2cc3c(cc12)oc1ccccc13 [Example 6B, 2-[(Benzo[b]naphthol[2,3-d]furan-7-ylmethyl)amino]-2-methyl-1,3-propanediol methanesulphonate 1/4 hydrate] | 55
